Test results taken from article PMC4106346, “The Oligomeric States of the Purified Sigma-1 Receptor Are Stabilized by Ligands” (The Journal of Biological Chemistry, 2014).
These are yes or no findings as the source states them, for the method shown.

Amino acid sequences for entries named in this document (tags omitted). A change or cut given only in a name is not applied to a line headed by its entry.
UniProt Q60492: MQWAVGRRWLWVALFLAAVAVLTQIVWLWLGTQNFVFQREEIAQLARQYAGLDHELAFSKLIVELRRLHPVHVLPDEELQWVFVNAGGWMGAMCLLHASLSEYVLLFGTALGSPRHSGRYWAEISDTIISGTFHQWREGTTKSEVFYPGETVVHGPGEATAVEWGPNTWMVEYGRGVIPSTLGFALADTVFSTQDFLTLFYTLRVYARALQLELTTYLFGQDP

Experiments:
[1] = biological target: MBP-4A-S1R (guinea pig sigma-1 receptor fused to maltose-binding protein through a 4-Ala linker) (guinea pig) (UniProt Q60492); assay: condition: only the isolated peak 2 (monomer) fraction; SEC-MALS; isolated peak 2 (monomer) of MBP-4A-S1R; Superdex S200, 150 mM NaCl, 5 mM HEPES pH 7.2, 0.018% DDM; both purified
[2] = biological target: MBP-4A-S1R (guinea pig sigma-1 receptor fused to maltose-binding protein through a 4-Ala linker) (guinea pig) (UniProt Q60492); assay: condition: only the isolated peak 2 (monomer) fraction, 5 μM; cross-linking; DSS (150 or 250 μM) on 5 μM isolated peak 2 (monomer) of MBP-4A-S1R, 2 h at room temperature, with or without 10 μM BD-1047; SDS-PAGE; both purified

binding [1]: no binding
binding [2]: no binding
Substance: MBP-4A-S1R (guinea pig sigma-1 receptor fused to maltose-binding protein through a 4-Ala linker) (from UniProt Q60492 1-223)
